Reference: US20060063919A1, “Self-assembling-peptide-based structures and processes for controlling the self-assembly of such structures” (priority 2004, published 2006)
Not every detail of the peptide structures is certain; ends, links or a residue may be inferred. Peptide text beside a SMILES is read from it.

Assay: rate of fibril formation (self-assembly) as a function of metal ion content
Format: physicochemical

CC(C)C[C@H](NC(=O)[C@H](CCCCN)NC(=O)[C@H](CCC(N)=O)NC(=O)[C@H](Cc1c[nH]cn1)NC(=O)[C@H](Cc1c[nH]cn1)NC(=O)[C@@H](NC(=O)[C@H](CCC(=O)O)NC(=O)[C@@H](N)Cc1ccc(O)cc1)C(C)C)C(=O)N[C@H](C(=O)N[C@@H](Cc1ccccc1)C(=O)N[C@@H](Cc1ccccc1)C(=O)N[C@@H](C)C(=O)O)C(C)C [Aβ(10-21)] (H-YEVHHQKLVFFA-OH)
rate of self-assembly / fibril formation (in the absence of ZnCl2): relatively slow rate | rate of self-assembly / fibril formation (in the presence of ZnCl2 (Zn^+2)): much higher rate
